A short description of the experiment: qHTS Assay for Lipid Storage Modulators in Drosophila S3 Cells.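 For cell number change: cells counted by Cell Tracker Red CMTPX staining in the red channel.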 Conditions: BODIPY lipid droplet fluorescence, 18-24 h; for cell number change: measured here: cell count max response, cells fed with added oleic acid. The essentials: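 Laser-scanning cytometry quantifies lipid droplet accumulation (500–530 nm total intensity; droplet/cell object ratio) in oleic acid-fed (400 uM added) Drosophila S3 cells treated with a concentration series. 20 uM Triacsin C defined 100% inhibition.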

Setting [1] is: measured here: lipid fluorescence (Fed channel) AC50, cells fed with added oleic acid.
Setting [2] is: measured here: cell number channel AC50, cells fed with added oleic acid.

Each structure is given as a SMILES string. The list shows a part of the results. The main result of the screen is listed elsewhere. These columns were measured beside it and carry no call. Most of these compounds were active or inconclusive in the main read-out, so they are no random draw. The note in brackets gives the kind of curve behind each potency; many fits are weak.

Consider `Cc1cc(C)cc(N(CC(=O)Nc2cccc(C)c2C)S(=O)(=O)c2c(C)[nH]c(=O)[nH]c2=O)c1`, for which, under setting [1], the AC50 is 29.1 µM [rising, single point].

Consider `CN(C)/C=C/C(=O)c1cccc([N+](=O)[O-])c1`, for which the AC50 runs as follows: under setting [2], 0.00461 µM [falling, full curve, poor fit]; under setting [1], 0.0058 µM [falling, full curve, poor fit].

Regarding `COc1ccc(-c2ccc3c(N)c(C(=O)NC(C)C)sc3n2)cc1OC`, the cell number change is -7.72%.

In the case of `CCOc1ccc2nc(N3CCC(C(=O)NC4CCCCC4)CC3)sc2c1`, the cell number change was 1.73%. Also, the AC50 under setting [2] was 0.366 µM [rising, partial curve, poor fit].

On to `COCCN(C(=S)Nc1ccc(C(C)C)cc1)C(C)c1cccs1` (configuration not stated), for which the cell number change was 9.5%. Moreover, under setting [1], the AC50 was 20.6 µM [rising, single point].

As to `CC(C)Oc1ccc(CNC(=O)c2ccc3nc(N4CCOCC4)sc3c2)cc1`, the cell number change worked out at 15.9%.

`O=C(Cn1c(=O)[nH]c2ccccc2c1=O)N1CCN(Cc2ccc3c(c2)OCO3)CC1`: the cell number change came to 15.7%. Also, the half-maximal activity concentration (AC50) under setting [1] is 29.1 µM [rising, single point].

Turning to `O=[N+]([O-])c1cc([N+](=O)[O-])c(Oc2cc(Cl)ccc2Cl)cc1NC1CCCCCCC1`, the cell number change is 2.1%. Moreover, the AC50 under setting [1] was 6.51 µM [falling, single point].

For `Cc1c(C(=O)NC(=S)NCC(C)C)oc2ccccc12`, the cell number change was 4.19%.

Take `CC1CC(C)(C)NC(=S)N1CCCC(=O)Nc1ccc(Cl)cc1` (configuration not stated): under setting [1], the AC50 was 0.0058 µM [falling, full curve, poor fit].

On to `Cc1ccc2nc(SCC(=O)c3c[nH]c4ccccc34)[nH]c2c1`, for which the cell number change was -4.14%.

On to `O=C(Cn1c(=O)oc2ccccc21)N1CCN(c2ccc(N3CCOCC3)nn2)CC1`, for which the cell number change was found to be 12.4%. Further, the half-maximal activity concentration (AC50) under setting [1] was 0.58 µM [rising, full curve, poor fit].

As to `Cc1ccc(C(=O)NC(=S)NNC(=O)c2ccccc2O)cc1`, the cell number change was -21.2%.

Regarding `O=C(OC1CCOC1=O)C1CCN(S(=O)(=O)c2c(Cl)cccc2Cl)CC1` (configuration not stated), the cell number change is 39%. The half-maximal activity concentration (AC50) under setting [2] is 23.1 µM [rising, single point].

With `CC1CCCC(n2c(=S)[nH]c3ccccc3c2=O)C1C` (configuration not stated), the cell number change was -48%. Besides, under setting [2], the half-maximal activity concentration (AC50) was 29.1 µM [falling, single point].

Consider `CC(=O)c1cc2c(cc1NC(=O)Cn1nc(C)c(C)c(C#N)c1=O)OCO2`, for which the cell number change is 35.3%. For the same compound, the concentration at half-maximal activity (AC50) under setting [2] is 0.116 µM [rising, full curve, poor fit]. Also, the AC50 under setting [1] is 1.46 µM [rising, full curve].

With `O=C(Nc1nnc(-c2cccs2)o1)c1cccc(Oc2ccccc2)c1`, the AC50 under setting [2] was 0.164 µM [falling, partial curve] and the AC50 under setting [1] is 6.51 µM [rising, partial curve].

With `CCO[C@H]1OC(C(=O)N2CCN(Cc3ccc4c(c3)OCO4)CC2)=C[C@@H](C(C)(C)C)[C@@H]1CCCO`, the cell number change was -14.1%. In addition, the half-maximal activity concentration (AC50) under setting [1] was 29.1 µM [falling, single point].

Regarding `COc1ccc(C2C(C#N)=C(N)OC3=C2C(=O)CCC3)c(OC)c1OC` (configuration not stated), the cell number change was -5.74%.

`O=C(Nc1ccc2oc(-c3cccc4ccccc34)nc2c1)c1ncn[nH]1`: the AC50 under setting [2] is 1.84 µM [rising, partial curve, poor fit].

With `COc1ccc(/C=C2\SC(=NCc3ccccc3)N(Cc3ccccc3)C2=O)cc1OC`, the half-maximal activity concentration (AC50) under setting [1] is 0.291 µM [rising, partial curve, poor fit].

With `Fc1ccc(CNCCC(Cc2ccccc2)c2ccco2)cc1` (configuration not stated), the cell number change was -18.6%. Moreover, the AC50 under setting [1] is 2.31 µM [rising, partial curve].

With `C=CCNC(=O)c1cn(CC)c2cc(N3CCN(C(=O)c4ccco4)CC3)c(F)cc2c1=O`, the cell number change worked out at 8.78%. Moreover, the AC50 under setting [1] is 16.4 µM [falling, single point].

In the case of `COc1ccccc1/C=C/C(=O)N1CCOCC1`, under setting [1], the half-maximal activity concentration (AC50) was 0.146 µM [rising, full curve, poor fit].

Regarding `Cc1cccc(-n2ncc3c(NCCN4CCOCC4)ncnc32)c1`, the cell number change is -18.6%. The AC50 under setting [2] is 0.82 µM [falling, full curve, poor fit]. Also, under setting [1], the concentration at half-maximal activity (AC50) was 0.731 µM [falling, full curve].

Regarding `COc1ccc(/C=N/NC(=O)c2c(C)nnn2-c2nonc2N)cc1OC`, the cell number change amounted to 1.1%.

With `Cc1ccc(S(=O)(=O)N(C)C)cc1NC(=O)c1cc(S(=O)(=O)N2CCCCC2)ccc1N1CCOCC1`, the cell number change is 94.5%. Besides, under setting [2], the AC50 is 23.1 µM [rising, single point].

With `CCC1=NN(C(=O)c2ccccc2O)C(O)(c2ccccc2)C1` (configuration not stated), the cell number change is -17.3%.

With `CCCCCCC1/C(=N/O)CCC1C(=O)OC` (configuration not stated), the cell number change amounted to 165%. The AC50 under setting [2] was 29.1 µM [rising, single point]. Further, the AC50 under setting [1] was 6.51 µM [rising, partial curve, poor fit].

In the case of `O=C1CC(c2ccc(S(=O)(=O)N3CCCCC3)cc2)CN1` (configuration not stated), the cell number change worked out at 5.61%.

As for `COc1ccc(CNC(=O)CSc2nnc(C(F)(F)F)n2C)cc1`, the cell number change stood at 1.7%. Also, the half-maximal activity concentration (AC50) under setting [2] was 7.31 µM [falling, single point]. In addition, the concentration at half-maximal activity (AC50) under setting [1] was 6.51 µM [falling, single point].

As for `CCN(C(=O)CSc1nnc(SC(C)C)s1)C1CCS(=O)(=O)C1` (configuration not stated), the cell number change was -4.84%. In addition, the AC50 under setting [1] is 4.11 µM [rising, partial curve, poor fit].

With `COc1ccc2c(=O)c(-c3cnn(-c4ccccc4)c3)c(C)oc2c1`, the cell number change is -6.74%. Besides, the half-maximal activity concentration (AC50) under setting [2] was 0.731 µM [falling, partial curve, poor fit].

Turning to `Cc1c(OC(C)C(=O)NCC(O)c2ccccc2)ccc2c3c(c(=O)oc12)CCC3` (configuration not stated), the cell number change was -12.6%. For the same compound, under setting [2], the half-maximal activity concentration (AC50) was 6.51 µM [falling, single point].

In the case of `Cc1cc(C)c2oc(C(=O)N(Cc3ccc(F)cc3)C3CCS(=O)(=O)C3)cc(=O)c2c1` (configuration not stated), the cell number change was -36.3%. Further, the half-maximal activity concentration (AC50) under setting [1] is 29.1 µM [falling, single point].

Regarding `Cc1ccc(NS(=O)(=O)c2cccc(C(=O)OCC(=O)NCc3ccco3)c2)cc1`, the cell number change turned out to be 0.535%. For the same compound, under setting [1], the concentration at half-maximal activity (AC50) is 0.326 µM [rising, full curve].

Consider `COc1ccccc1CN(CC(=O)NCc1ccc(F)cc1)C(=O)c1csnn1`, for which the cell number change was -12.1%.

Take `Cc1nc(SCC(=O)Nc2cccnc2Cl)nc(C)c1C`: the cell number change turned out to be 38.4%.

As for `C/C(N)=C(/C#N)C(=O)CSc1nnc(Nc2ccccc2)s1`, the cell number change was 7.11%. In addition, under setting [2], the AC50 is 6.51 µM [falling, single point]. Under setting [1], the concentration at half-maximal activity (AC50) is 0.0651 µM [rising, full curve, poor fit].

As for `Cc1cccc(CN2CCC(C(=O)Nc3ccc(-n4nc(C)cc4C)cc3)CC2)n1`, the cell number change came out at 17.3%. The concentration at half-maximal activity (AC50) under setting [1] was 0.58 µM [rising, single point].

For the compound `COc1cccc(CC(=O)Nc2cc(S(=O)(=O)N3CCOCC3)ccc2OC)c1`, the cell number change came to 108%. The concentration at half-maximal activity (AC50) under setting [2] was 10.3 µM [rising, partial curve].

Take `O=C(CSc1nc(O)cc(=O)[nH]1)N1c2ccccc2Sc2ccccc21`: the cell number change turned out to be 12.7%. The AC50 under setting [1] is 1.3 µM [rising, full curve, poor fit].

`COc1ccccc1Nc1ccc2nonc2c1[N+](=O)[O-]`: the cell number change was -18.8%. The AC50 under setting [1] is 0.206 µM [falling, single point].

On to `COC(=O)c1ccc(N2CCN(S(=O)(=O)c3ccccc3)CC2)c([N+](=O)[O-])c1`, for which the concentration at half-maximal activity (AC50) under setting [1] is 2.31 µM [rising, single point].

For the compound `CCOC(=O)c1ccc(NS(=O)(=O)c2cc(C)ccc2OC)cc1`, the cell number change is -34.2%. Besides, the half-maximal activity concentration (AC50) under setting [2] is 16.4 µM [falling, single point]. Besides, under setting [1], the AC50 is 1.03 µM [rising, partial curve].

As for `CC(C)CC(=O)NNC(=O)C(C)C`, the cell number change is 2.52%.

As to `Cc1ccc(S(=O)(=O)c2nc(-c3ccco3)oc2SCC(=O)NCC2CCCO2)cc1` (configuration not stated), under setting [2], the AC50 is 0.116 µM [rising, full curve, poor fit].

In the case of `O=C(Cn1cnc2c(nnn2-c2cccc(F)c2)c1=O)Nc1ccc2c(c1)OCCO2`, the cell number change was determined as 15.1%.

As to `O=C(NCc1ccc2c(c1)OCO2)c1ccc(S(=O)(=O)N2CCCCC2)cc1`, the cell number change came to 19.3%. The half-maximal activity concentration (AC50) under setting [1] is 14.6 µM [rising, partial curve].

For `Cc1nccc2oc(=O)c(NC(=O)c3ccc(Cl)cc3)cc12`, the cell number change was 5.22%. The concentration at half-maximal activity (AC50) under setting [2] was 6.51 µM [rising, single point].

As for `Cc1cc(=O)[nH]c2nnc(SCC(=O)N3CC(C)OC(C)C3)n12` (configuration not stated), the cell number change was -52.1%. Also, the AC50 under setting [2] is 25.9 µM [falling, single point]. In addition, the concentration at half-maximal activity (AC50) under setting [1] is 25.9 µM [falling, single point].

With `Fc1cccc(Cc2noc(CN3CCN(c4cnccn4)CC3)n2)c1`, the cell number change was found to be 8.46%. Also, the AC50 under setting [1] is 0.58 µM [rising, full curve, poor fit].

With `COCCCNCC1C(Oc2ccc(Cl)cc2)C(=O)N1c1ccccc1C` (configuration not stated), the cell number change is -9.05%. For the same compound, the AC50 under setting [1] was 29.1 µM [rising, single point].

`CN(NC(=O)c1c(Cl)cccc1Cl)c1cccc(Cl)n1`: the cell number change was -32.9%. For the same compound, the concentration at half-maximal activity (AC50) under setting [2] is 32.6 µM [falling, single point].

Consider `COc1ccccc1C/C(N)=N/OC(=O)c1ccco1`, for which the cell number change was found to be 7.4%. Further, under setting [1], the AC50 was 6.51 µM [falling, single point].

For `CCN1C(=O)S/C(=C/c2ccc(Sc3nc4ccccc4[nH]3)o2)C1=O`, the cell number change was -20.7%. Under setting [1], the half-maximal activity concentration (AC50) was 18.4 µM [falling, single point].

In the case of `COc1ccc(OCCn2c(C)c(/C=N/n3cnnc3)c3ccccc32)cc1`, the cell number change is -32.7%. Further, the concentration at half-maximal activity (AC50) under setting [2] is 32.6 µM [falling, single point].

As for `O=C(c1ccccc1)c1ccc(OCC(O)CN2CCN(S(=O)(=O)N3CCCCC3)CC2)cc1` (configuration not stated), the cell number change was 62.3%. In addition, the concentration at half-maximal activity (AC50) under setting [2] was 5.17 µM [rising, full curve]. For the same compound, the AC50 under setting [1] is 7.31 µM [rising, partial curve].

Regarding `CCOc1ccc(Cc2nnc(SCC(=O)Nc3ccc(OC)cc3)n(N)c2=O)cc1`, the cell number change turned out to be 69%. Further, the AC50 under setting [2] was 20.6 µM [rising, partial curve].

As to `O=C(N/N=C/c1c[nH]c2ccccc12)c1ccc(Br)cc1`, the cell number change was -36.8%. Further, the half-maximal activity concentration (AC50) under setting [2] was 20.6 µM [falling, single point]. Moreover, under setting [1], the concentration at half-maximal activity (AC50) was 14.6 µM [falling, partial curve, poor fit].

With `O=C(Nc1sc2c(c1C(=O)O)CCCC2)c1ccccc1Cl`, the cell number change was found to be 42.3%. Also, the AC50 under setting [2] was 3.26 µM [rising, partial curve]. For the same compound, the AC50 under setting [1] was 25.9 µM [rising, single point].

Usually AC50 stands for the midpoint of the concentration-response curve, whichever way the signal moves. Higher therefore signals activity only at high concentration.

Source of the values: PubChem BioAssay AID2685 (National Center for Advancing Translational Sciences (NCATS), 2010).
